Results deposited as PubChem BioAssay AID1259308 (NCATS, 2017).
Shown is a random part of about 59,000 reagents. About 1,510 of all reagents (2.6%) were called active. 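Calls use total luciferase alone and ignore viability, so some active siRNAs may act by altering cell number.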 The numbers tell different reagents against one gene apart.

Test: 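Knock-downs that increase output of a recombinant reporter protein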 (primary screen)
System: human HEK293 embryonic kidney cells stably expressing firefly luciferase (HEK-CMV-Luc2-Hygro)
Knock-down reagent: single siRNA against human genes, 0.8 pmol siRNA per well
Time to read-out: 72 h
Read-out: 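Luciferase light (ONE-Glo) measured on one replicate plate set and viability (CellTiter-Glo) on the other, scaled to a negative control siRNA, with robust z-scores and luciferase per cell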
Direction: total luciferase, z-score and total luciferase, % of control: higher = more reporter protein produced; luciferase per cell, z-score: higher = more reporter output per viable cell; viable cells, % of control: higher = more viable cells
Active means: 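Active when the median/MAD z-score for overall luciferase is greater than 3; a gene was taken forward for validation with new siRNAs if at least two of its three siRNAs passed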
Calls: active = raised luciferase; inactive = no rise

| gene symbol | siRNA no. | total luciferase, z-score | total luciferase, % of control | luciferase per cell, z-score | viable cells, % of control | Call |
| --- | --- | --- | --- | --- | --- | --- |
| RIPOR2 (RHO family interacting cell polarization regulator 2) | 1 | -1.34 | 55.2 | -0.0299 | 62.2 | inactive |
| RIPOR2 (RHO family interacting cell polarization regulator 2) | 2 | -0.335 | 75.2 | -0.398 | 93.3 | inactive |
| RIPOR2 (RHO family interacting cell polarization regulator 2) | 3 | -0.525 | 71.4 | -1.28 | 112 | inactive |
| GHRH (growth hormone releasing hormone) | 1 | 2.11 | 124 | 1.65 | 89.7 | inactive |
| GHRH (growth hormone releasing hormone) | 2 | -1.87 | 44.8 | -0.548 | 57.8 | inactive |
| GHRH (growth hormone releasing hormone) | 3 | -1.13 | 59.3 | -0.613 | 77.9 | inactive |
| NOLC1 (nucleolar and coiled-body phosphoprotein 1) | 1 | 1.07 | 103 | 0.614 | 98.1 | inactive |
| NOLC1 (nucleolar and coiled-body phosphoprotein 1) | 2 | -0.0531 | 80.8 | -0.121 | 93.3 | inactive |
| NOLC1 (nucleolar and coiled-body phosphoprotein 1) | 3 | 0.307 | 88 | -0.22 | 104 | inactive |
| GTF3C2 (general transcription factor IIIC subunit 2) | 1 | -1.32 | 55.7 | -1.41 | 90.2 | inactive |
| GTF3C2 (general transcription factor IIIC subunit 2) | 2 | -0.201 | 77.9 | -0.653 | 103 | inactive |
| GTF3C2 (general transcription factor IIIC subunit 2) | 3 | -0.954 | 62.9 | -0.239 | 74.9 | inactive |
| PDCD11 (programmed cell death 11) | 1 | -0.443 | 73.1 | -0.393 | 90.6 | inactive |
| PDCD11 (programmed cell death 11) | 2 | -0.225 | 77.4 | 0.148 | 83.2 | inactive |
| PDCD11 (programmed cell death 11) | 3 | -0.514 | 71.7 | -0.166 | 83.7 | inactive |
| KRTAP9-3 (keratin associated protein 9-3) | 1 | -0.592 | 70.1 | -0.872 | 98.6 | inactive |
| KRTAP9-3 (keratin associated protein 9-3) | 2 | 2.56 | 133 | 2.48 | 77.3 | inactive |
| KRTAP9-3 (keratin associated protein 9-3) | 3 | 1.34 | 109 | 0.696 | 101 | inactive |
| ENOPH1 (enolase-phosphatase 1) | 1 | -0.0416 | 81.1 | 0.0342 | 89.8 | inactive |
| ENOPH1 (enolase-phosphatase 1) | 2 | 3.99 | 161 | 2.17 | 102 | active |
| ENOPH1 (enolase-phosphatase 1) | 3 | -0.145 | 79 | -0.238 | 94 | inactive |
| SLC16A14 | 1 | -0.21 | 77.7 | -0.378 | 95.9 | inactive |
| SLC16A14 | 2 | -0.0543 | 80.8 | -0.251 | 96.5 | inactive |
| SLC16A14 | 3 | -0.586 | 70.2 | 0.603 | 66.9 | inactive |
| OR1B1 (olfactory receptor family 1 subfamily B member 1) | 1 | 0.695 | 95.7 | 0.674 | 89.6 | inactive |
| OR1B1 (olfactory receptor family 1 subfamily B member 1) | 2 | 4.14 | 164 | 3.14 | 80.1 | active |
| OR1B1 (olfactory receptor family 1 subfamily B member 1) | 3 | 2.05 | 123 | 1.69 | 87.9 | inactive |
| SPDYE10 (speedy/RINGO cell cycle regulator family member E10) | 1 | 0.449 | 90.8 | 0.291 | 94 | inactive |
| SPDYE10 (speedy/RINGO cell cycle regulator family member E10) | 2 | 1.52 | 112 | 0.591 | 107 | inactive |
| SPDYE10 (speedy/RINGO cell cycle regulator family member E10) | 3 | -0.0222 | 81.4 | 0.436 | 81.1 | inactive |
| CTAGE1 (cutaneous T cell lymphoma-associated antigen 1) | 1 | 4.99 | 181 | 3.5 | 80.5 | active |
| CTAGE1 (cutaneous T cell lymphoma-associated antigen 1) | 2 | -0.155 | 78.8 | -0.529 | 101 | inactive |
| CTAGE1 (cutaneous T cell lymphoma-associated antigen 1) | 3 | -0.972 | 62.6 | -1.1 | 93.4 | inactive |
| CCDC28B (coiled-coil domain containing 28B) | 1 | 1.57 | 113 | 0.446 | 112 | inactive |
| CCDC28B (coiled-coil domain containing 28B) | 2 | -0.299 | 75.9 | -0.693 | 102 | inactive |
| CCDC28B (coiled-coil domain containing 28B) | 3 | 0.274 | 87.3 | -0.208 | 103 | inactive |
| PRRC1 (proline rich coiled-coil 1) | 1 | -1.12 | 59.7 | -0.739 | 81 | inactive |
| PRRC1 (proline rich coiled-coil 1) | 2 | 0.086 | 83.6 | 0.585 | 80.1 | inactive |
| PRRC1 (proline rich coiled-coil 1) | 3 | 2.1 | 124 | 1.89 | 84.1 | inactive |

Entries listed above called active, once more:
| gene symbol | siRNA no. | total luciferase, z-score | total luciferase, % of control | luciferase per cell, z-score | viable cells, % of control | Call |
| --- | --- | --- | --- | --- | --- | --- |
| ENOPH1 (enolase-phosphatase 1) | 2 | 3.99 | 161 | 2.17 | 102 | active |
| OR1B1 (olfactory receptor family 1 subfamily B member 1) | 2 | 4.14 | 164 | 3.14 | 80.1 | active |
| CTAGE1 (cutaneous T cell lymphoma-associated antigen 1) | 1 | 4.99 | 181 | 3.5 | 80.5 | active |
